In the supplement of paper PMC12819154, “High-throughput peptide-centric local stability assay extends protein–ligand identification to membrane proteins, tissues and bacteria” (Nature Structural & Molecular Biology, 2025):
The other results are listed elsewhere or left out. Most entries show no effect beyond the scatter of the controls.

Amino acid sequences for entries named in this document (tags omitted). A change or cut given only in a name is not applied to a line headed by its entry.
UniProt Q9BXR0: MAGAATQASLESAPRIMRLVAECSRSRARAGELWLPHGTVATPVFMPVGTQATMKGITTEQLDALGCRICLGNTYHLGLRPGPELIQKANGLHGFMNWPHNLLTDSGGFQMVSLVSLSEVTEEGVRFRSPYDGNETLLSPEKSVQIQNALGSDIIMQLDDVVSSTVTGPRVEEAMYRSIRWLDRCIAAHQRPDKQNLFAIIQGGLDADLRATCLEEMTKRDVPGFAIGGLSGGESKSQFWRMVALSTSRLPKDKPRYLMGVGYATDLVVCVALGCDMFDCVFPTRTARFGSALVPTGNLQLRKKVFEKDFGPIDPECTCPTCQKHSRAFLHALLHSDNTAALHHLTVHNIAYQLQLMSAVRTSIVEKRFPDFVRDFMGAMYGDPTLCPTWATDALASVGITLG
UniProt Q9C099: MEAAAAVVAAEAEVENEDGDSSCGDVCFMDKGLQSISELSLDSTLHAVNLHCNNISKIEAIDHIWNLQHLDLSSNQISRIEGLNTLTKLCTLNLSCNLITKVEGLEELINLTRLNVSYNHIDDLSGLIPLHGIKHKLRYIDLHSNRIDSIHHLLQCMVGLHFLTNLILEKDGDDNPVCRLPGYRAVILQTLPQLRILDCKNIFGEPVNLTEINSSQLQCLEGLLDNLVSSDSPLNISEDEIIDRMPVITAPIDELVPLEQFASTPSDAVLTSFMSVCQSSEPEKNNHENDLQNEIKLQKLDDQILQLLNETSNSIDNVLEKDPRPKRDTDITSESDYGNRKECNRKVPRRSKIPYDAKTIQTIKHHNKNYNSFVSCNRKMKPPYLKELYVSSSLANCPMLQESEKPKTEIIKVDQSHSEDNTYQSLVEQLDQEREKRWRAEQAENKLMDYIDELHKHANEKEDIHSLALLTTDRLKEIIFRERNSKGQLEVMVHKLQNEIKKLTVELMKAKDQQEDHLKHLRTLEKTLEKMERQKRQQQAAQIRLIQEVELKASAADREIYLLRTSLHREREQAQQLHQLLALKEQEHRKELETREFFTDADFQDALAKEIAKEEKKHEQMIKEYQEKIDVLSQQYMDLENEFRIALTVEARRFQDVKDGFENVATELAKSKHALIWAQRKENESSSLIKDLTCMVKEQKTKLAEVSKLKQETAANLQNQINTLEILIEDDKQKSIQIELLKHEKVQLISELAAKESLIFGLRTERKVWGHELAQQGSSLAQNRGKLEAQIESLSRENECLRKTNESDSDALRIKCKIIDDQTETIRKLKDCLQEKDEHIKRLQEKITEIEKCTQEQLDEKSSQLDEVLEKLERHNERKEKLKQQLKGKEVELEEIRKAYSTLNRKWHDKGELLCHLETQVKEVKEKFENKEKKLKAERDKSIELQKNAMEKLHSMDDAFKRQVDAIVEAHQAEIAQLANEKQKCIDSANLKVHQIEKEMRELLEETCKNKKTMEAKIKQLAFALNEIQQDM
UniProt Q9BVW5: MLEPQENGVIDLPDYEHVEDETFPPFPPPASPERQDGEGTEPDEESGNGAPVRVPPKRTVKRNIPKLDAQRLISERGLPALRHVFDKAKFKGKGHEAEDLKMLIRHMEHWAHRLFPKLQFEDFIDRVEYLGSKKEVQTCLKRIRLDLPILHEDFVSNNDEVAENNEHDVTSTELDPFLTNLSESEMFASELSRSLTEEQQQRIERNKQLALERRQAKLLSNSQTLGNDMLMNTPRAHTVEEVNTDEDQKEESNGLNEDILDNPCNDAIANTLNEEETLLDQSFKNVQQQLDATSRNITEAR
UniProt Q9BZL4: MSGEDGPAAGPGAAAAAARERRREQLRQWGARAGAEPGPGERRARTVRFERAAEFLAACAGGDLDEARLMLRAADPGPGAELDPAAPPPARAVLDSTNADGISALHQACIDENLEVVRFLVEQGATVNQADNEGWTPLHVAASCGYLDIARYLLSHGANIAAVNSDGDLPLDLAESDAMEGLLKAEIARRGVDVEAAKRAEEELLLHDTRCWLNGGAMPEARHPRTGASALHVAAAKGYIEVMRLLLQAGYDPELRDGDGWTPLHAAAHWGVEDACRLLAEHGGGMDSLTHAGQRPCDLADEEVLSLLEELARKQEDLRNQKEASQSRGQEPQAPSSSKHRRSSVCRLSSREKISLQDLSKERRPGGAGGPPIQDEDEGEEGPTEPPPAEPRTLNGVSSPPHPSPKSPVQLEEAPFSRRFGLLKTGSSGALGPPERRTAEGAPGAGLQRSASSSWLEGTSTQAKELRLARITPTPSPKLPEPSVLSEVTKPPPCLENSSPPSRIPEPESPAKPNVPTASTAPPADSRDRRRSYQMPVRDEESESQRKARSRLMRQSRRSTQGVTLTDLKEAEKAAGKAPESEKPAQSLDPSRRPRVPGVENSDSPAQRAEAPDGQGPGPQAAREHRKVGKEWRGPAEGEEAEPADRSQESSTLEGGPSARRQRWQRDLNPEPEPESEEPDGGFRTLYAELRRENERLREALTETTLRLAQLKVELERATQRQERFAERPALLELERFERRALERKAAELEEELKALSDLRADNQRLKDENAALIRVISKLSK
UniProt Q9H081: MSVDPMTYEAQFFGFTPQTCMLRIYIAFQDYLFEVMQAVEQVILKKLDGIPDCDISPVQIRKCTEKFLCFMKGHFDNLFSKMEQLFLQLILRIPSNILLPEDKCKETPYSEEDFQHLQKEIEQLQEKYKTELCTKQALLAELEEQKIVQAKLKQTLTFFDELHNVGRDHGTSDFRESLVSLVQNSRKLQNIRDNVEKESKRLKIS
UniProt Q9H0S4: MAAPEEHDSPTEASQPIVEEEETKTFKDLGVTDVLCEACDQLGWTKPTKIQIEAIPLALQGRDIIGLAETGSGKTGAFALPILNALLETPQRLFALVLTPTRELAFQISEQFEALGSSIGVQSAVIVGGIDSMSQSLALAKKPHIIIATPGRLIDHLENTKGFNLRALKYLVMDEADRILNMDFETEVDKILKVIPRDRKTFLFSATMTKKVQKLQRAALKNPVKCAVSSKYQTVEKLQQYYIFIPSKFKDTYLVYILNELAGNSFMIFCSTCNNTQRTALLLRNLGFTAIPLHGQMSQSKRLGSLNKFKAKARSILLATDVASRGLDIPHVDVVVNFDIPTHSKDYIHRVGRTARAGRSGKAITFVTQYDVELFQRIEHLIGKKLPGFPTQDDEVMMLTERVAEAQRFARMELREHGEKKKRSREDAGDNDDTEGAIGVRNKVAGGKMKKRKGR
UniProt Q9BXJ9: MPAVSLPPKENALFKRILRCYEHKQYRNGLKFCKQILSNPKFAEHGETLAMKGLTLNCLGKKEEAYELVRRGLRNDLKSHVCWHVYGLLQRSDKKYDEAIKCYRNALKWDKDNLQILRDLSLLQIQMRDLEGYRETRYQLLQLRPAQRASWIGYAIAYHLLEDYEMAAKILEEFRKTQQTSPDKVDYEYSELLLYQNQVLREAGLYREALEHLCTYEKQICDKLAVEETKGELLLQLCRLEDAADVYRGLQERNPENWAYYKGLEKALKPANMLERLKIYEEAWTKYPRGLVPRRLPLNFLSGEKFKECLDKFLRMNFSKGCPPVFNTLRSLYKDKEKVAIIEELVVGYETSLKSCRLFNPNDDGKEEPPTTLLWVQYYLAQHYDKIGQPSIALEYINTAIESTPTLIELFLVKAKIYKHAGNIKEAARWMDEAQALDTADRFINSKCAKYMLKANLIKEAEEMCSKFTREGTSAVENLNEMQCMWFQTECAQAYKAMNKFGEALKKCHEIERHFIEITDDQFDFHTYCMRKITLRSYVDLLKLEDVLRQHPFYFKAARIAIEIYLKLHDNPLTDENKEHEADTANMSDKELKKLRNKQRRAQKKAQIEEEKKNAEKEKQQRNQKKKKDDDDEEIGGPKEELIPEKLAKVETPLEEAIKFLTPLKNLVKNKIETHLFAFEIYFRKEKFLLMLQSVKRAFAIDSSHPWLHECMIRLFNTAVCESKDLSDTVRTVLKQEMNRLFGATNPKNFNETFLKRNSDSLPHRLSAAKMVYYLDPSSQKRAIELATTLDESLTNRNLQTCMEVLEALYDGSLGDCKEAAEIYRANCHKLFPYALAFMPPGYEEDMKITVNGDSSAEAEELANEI
UniProt Q9C005, whole entry: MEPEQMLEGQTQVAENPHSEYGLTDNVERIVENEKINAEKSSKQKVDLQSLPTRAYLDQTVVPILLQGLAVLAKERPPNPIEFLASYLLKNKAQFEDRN

What follows are targets tested with Cc1nc(Nc2ncc(C(=O)Nc3c(C)cccc3Cl)s2)cc(N2CCN(CCO)CC2)n1 [dasatinib] (assay: log2 fold change of tryptic peptide abundance, ligand vs vehicle (limited proteolysis) (log2 ratio); higher = more trypsin-susceptible (destabilized)). Conditions: ligand concentration: 5 uM; sample: K562 cleared lysate.
“MRPL9 (peptide sequence: YWLAQQAAK, peptide start residue: 250) (UniProt Q9BYD2)” was tested, and the log2 fold change was 0.307. Work on “QTRT1 (peptide sequence: ATCLEEMTKR, peptide start residue: 211) (UniProt Q9BXR0)” yielded a log2 fold change of -0.347. In the case of “LRRCC1 (peptide sequence: KVWGHELAQQGSSLAQNR, peptide start residue: 767) (UniProt Q9C099)”, the log2 fold change is reported as -0.622. For “TIPIN (peptide sequence: SLTEEQQQR, peptide start residue: 194) (UniProt Q9BVW5)”, the log2 fold change was 0.124. Target “PPP1R12C (peptide sequence: DGDGWTPLHAAAHWGVEDACR, peptide start residue: 257) (UniProt Q9BZL4)” has a log2 fold change of 0.667. “MIS12 (peptide sequence: QALLAELEEQKIVQAK, peptide start residue: 136) (UniProt Q9H081)” gave a log2 fold change of 0.284. Target “DDX47 (peptide sequence: KTFLFSATMTK, peptide start residue: 200) (UniProt Q9H0S4)” has a log2 fold change of -0.426. In the case of “UniProt Q9BXJ9 (peptide sequence: LFNTAVCESKDLSDTVR, peptide start residue: 715)”, the log2 fold change is reported as 0.226. “DPY30 (peptide sequence: QKVDLQSLPTR, peptide start residue: 44) (UniProt Q9C005)” showed a log2 fold change of -0.28.
